Among all 290,000 compounds or so, about 110 (0.038%) were called active. All entries are inconclusive by the source's own rule. Clear calls are listed elsewhere. Calls come from the whole dose curve; as a rule, active = well fitted inhibition curve with a large enough effect in the polarisation, with a control signal flat (not every such curve was filed as active); inconclusive = small, poorly fitted or top-dose-only effect, or effect the other way, or a change in a side signal; inactive = no such curve, though single readings can be large or run the other way; the % refers to the polarisation.
The molecules below were run against Histone-lysine N-methyltransferase 2A (Homo sapiens) (UniProt Q03164) (assay: qHTS Fluorescence Polarization Assay for Inhibitors of MLL CXXC domain - DNA interaction). Conditions: MLL-CXXC / FITC-HOXA9 DNA fluorescence polarization.
Potency is the fitted concentration of half-maximal effect.

By UniProt entry, the sequences of proteins in these tests, tags left out.
UniProt Q03164, whole entry: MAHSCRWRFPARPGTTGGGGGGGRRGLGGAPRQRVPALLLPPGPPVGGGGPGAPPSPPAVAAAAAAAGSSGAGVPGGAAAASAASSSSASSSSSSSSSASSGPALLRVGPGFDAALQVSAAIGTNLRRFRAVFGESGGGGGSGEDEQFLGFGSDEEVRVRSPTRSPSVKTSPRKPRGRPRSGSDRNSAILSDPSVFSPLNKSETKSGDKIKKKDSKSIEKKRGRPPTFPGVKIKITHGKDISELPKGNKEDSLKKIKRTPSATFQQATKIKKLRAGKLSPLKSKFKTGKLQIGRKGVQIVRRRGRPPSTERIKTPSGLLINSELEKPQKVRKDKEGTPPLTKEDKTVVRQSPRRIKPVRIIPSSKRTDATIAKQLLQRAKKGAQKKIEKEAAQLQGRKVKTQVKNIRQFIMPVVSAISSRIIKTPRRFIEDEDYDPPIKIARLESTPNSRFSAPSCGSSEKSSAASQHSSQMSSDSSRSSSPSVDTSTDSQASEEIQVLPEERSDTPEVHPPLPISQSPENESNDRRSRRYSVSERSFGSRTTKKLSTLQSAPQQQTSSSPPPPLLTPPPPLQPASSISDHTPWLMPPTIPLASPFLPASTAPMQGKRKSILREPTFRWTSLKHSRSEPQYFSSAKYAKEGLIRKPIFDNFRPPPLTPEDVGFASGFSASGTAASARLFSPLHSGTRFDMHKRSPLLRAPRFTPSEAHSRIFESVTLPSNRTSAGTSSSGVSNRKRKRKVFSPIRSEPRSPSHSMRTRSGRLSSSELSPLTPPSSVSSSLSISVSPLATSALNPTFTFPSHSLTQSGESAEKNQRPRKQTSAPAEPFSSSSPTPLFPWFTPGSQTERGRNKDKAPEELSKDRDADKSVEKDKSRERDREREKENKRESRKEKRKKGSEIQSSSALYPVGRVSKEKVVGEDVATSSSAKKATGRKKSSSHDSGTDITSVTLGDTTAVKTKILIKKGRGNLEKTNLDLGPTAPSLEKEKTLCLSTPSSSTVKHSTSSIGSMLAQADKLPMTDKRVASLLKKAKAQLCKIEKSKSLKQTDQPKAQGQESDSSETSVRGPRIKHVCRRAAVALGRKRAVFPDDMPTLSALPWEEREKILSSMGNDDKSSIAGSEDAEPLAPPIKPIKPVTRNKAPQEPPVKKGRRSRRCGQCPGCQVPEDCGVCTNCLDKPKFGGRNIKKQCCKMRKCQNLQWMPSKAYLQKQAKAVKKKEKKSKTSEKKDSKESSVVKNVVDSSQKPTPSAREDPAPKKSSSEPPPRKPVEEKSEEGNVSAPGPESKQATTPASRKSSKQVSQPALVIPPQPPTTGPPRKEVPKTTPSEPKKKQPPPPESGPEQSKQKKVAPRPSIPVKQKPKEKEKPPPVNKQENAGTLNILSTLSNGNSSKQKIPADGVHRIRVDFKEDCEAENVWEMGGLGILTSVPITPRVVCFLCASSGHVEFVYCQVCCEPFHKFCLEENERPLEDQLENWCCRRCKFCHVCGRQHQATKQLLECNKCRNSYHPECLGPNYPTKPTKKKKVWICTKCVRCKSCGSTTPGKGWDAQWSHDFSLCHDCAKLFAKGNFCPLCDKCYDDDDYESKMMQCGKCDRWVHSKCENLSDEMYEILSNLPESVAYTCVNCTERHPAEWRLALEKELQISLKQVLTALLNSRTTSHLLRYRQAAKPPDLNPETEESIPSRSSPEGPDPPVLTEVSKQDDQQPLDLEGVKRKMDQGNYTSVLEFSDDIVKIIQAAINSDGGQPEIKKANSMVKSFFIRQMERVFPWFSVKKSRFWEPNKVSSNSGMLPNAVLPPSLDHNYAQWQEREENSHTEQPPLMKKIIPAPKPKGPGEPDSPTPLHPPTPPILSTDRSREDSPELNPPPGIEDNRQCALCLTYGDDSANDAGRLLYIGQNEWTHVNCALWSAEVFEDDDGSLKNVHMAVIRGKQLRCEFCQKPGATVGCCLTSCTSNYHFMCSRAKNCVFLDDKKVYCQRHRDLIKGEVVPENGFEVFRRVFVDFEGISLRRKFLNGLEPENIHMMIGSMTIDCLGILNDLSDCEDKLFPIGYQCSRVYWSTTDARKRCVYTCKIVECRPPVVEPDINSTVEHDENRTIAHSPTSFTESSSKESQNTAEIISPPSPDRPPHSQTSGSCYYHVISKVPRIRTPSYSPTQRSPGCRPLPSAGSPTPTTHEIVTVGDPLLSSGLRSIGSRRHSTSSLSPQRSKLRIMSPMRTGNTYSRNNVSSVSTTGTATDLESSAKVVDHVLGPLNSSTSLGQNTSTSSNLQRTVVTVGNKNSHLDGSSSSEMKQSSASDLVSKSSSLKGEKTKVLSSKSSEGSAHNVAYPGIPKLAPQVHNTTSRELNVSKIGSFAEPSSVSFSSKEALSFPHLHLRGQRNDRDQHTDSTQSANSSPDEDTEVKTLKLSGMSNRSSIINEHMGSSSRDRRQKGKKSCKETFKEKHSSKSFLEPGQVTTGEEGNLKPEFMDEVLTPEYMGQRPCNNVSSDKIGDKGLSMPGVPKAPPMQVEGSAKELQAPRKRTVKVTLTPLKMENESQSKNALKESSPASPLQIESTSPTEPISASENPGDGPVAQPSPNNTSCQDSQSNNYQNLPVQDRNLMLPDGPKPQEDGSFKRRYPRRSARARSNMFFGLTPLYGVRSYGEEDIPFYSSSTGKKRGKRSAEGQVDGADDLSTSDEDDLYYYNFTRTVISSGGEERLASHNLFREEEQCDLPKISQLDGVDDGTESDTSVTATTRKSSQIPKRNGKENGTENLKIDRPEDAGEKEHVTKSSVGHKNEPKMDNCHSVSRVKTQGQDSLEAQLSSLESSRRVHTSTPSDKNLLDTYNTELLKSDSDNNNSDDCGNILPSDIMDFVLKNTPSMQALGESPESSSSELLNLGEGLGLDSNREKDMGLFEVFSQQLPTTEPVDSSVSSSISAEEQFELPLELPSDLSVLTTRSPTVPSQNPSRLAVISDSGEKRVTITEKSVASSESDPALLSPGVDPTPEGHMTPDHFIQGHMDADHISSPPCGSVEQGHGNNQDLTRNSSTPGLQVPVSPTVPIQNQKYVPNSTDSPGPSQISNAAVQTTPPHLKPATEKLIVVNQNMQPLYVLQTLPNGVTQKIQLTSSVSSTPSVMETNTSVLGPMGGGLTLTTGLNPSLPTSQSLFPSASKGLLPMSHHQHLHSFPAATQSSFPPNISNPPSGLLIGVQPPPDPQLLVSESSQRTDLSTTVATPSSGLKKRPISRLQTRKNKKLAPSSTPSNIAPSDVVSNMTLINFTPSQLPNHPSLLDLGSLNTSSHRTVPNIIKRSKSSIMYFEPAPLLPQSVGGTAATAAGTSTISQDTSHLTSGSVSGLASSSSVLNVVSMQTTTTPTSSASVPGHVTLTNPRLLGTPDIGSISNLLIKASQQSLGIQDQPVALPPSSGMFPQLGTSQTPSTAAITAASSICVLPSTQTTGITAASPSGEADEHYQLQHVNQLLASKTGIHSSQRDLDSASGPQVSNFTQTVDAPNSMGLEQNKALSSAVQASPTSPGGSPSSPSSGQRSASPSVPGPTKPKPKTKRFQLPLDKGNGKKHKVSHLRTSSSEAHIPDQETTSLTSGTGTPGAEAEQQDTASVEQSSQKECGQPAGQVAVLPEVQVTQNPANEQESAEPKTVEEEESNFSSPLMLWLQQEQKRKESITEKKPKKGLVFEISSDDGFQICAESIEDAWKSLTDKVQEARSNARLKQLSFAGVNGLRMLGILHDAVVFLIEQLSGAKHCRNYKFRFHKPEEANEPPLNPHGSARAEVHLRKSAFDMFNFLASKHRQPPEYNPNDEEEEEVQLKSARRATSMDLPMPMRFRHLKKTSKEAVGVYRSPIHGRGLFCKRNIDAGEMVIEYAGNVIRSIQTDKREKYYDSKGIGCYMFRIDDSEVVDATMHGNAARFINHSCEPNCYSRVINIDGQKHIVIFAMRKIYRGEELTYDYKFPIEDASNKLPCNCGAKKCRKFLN

SMILES | Potency
CN(C)C(=O)c1c([N+](=O)[O-])cc([N+](=O)[O-])cc1[N+](=O)[O-] | inconclusive: 20 µM
N#[O+].[C-]#N.[C-]#N.[C-]#N.[C-]#N.[C-]#N.[Fe+2].[Na+].[Na+] | inconclusive: 15.8 µM
